PubChem BioAssay AID686937, Drosophila RNAi Screening Center – 2013
In all, the deposit lists about 23,000 reagents; this is an unselected part of those that have a named target and a result. 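Reduced-secretion tags in replicate 1 do not always agree with the z-scores; no criterion for assigning the tags was given.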 A plus sign joins genes that one reagent is predicted to hit. Further read-outs or replicates are left out here. The record does not give: the amount of reagent.

Aim: 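Knock-downs that reduce output of a secreted reporter enzyme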 (primary screen)
System: Drosophila S2 cells expressing secreted horseradish peroxidase
Reagent: long dsRNA against Drosophila genes
Timing: about 5.5 days (5 days dsRNA, then 12 h reporter induction)
Challenge: reporter expression induced after 5 days of dsRNA, read 12 h later; inducer not stated
Measurement: 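After 5 days of dsRNA and 12 h of reporter induction, medium peroxidase read by chemiluminescence and scored as per-plate z-score; higher values mean more reporter released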
Direction: z-score: higher = more reporter secreted into medium

For CG3225 [DRSC00578], how do the results read?
z-score, replicate 1: 0.34

For CG4781 [DRSC04488], how do the results read?
z-score, replicate 1: -0.23

For CG7627 [DRSC03065], what does the deposit list?
z-score, replicate 1: 0.34

For CG2747 [DRSC15450], how do the results read?
z-score, replicate 1: 0.19

Which result is listed for Chmp1 [DRSC10401]?
z-score, replicate 1: 0.42

With TBC1d7 + mRpS24 [DRSC14611], what does the deposit list?
z-score, replicate 1: 0.24

For CG43078 [DRSC10292], what does the deposit list?
z-score, replicate 1: 0.62

Which result is listed for CG43078 [DRSC10608]?
z-score, replicate 1: 0.62

What is on record for CG43078 [DRSC21541]?
z-score, replicate 1: 0

For CG43078 [DRSC22327], what was measured?
z-score, replicate 1: -0.57

What is on record for Rel [DRSC16819]?
z-score, replicate 1: -0.26

What did the screen give for CG5274 [DRSC11774]?
z-score, replicate 1: 0.63

With Ttd14 [DRSC06632], what does the deposit list?
z-score, replicate 1: 0.3

What did the screen give for Ttd14 [DRSC06942]?
z-score, replicate 1: -0.92

Which result is listed for na [DRSC19639]?
z-score, replicate 1: 0.3

Entries above whose target name starts with T or t (3):
TBC1d7 + mRpS24 [DRSC14611] — z-score, replicate 1: 0.24
Ttd14 [DRSC06632] — z-score, replicate 1: 0.3
Ttd14 [DRSC06942] — z-score, replicate 1: -0.92

More records follow.
With eIF3m [DRSC07142], what does the deposit list?
z-score, replicate 1: -1.84; phenotype, replicate 1: reduced secretion

What did the screen give for CG12209 [DRSC06119]?
z-score, replicate 1: 0.01

How did the screen score lms [DRSC06387]?
z-score, replicate 1: 0.35

What is on record for yellow-g2 [DRSC08338]?
z-score, replicate 1: 0.3

For CG4409 [DRSC06869], how do the results read?
z-score, replicate 1: 0.18

For CG43116 [DRSC13737], what does the deposit list?
z-score, replicate 1: -1.6; phenotype, replicate 1: reduced secretion

With CG14439 [DRSC17931], what does the deposit list?
z-score, replicate 1: 0.23

What did the screen give for CG1663 [DRSC06613]?
z-score, replicate 1: 0.07

With CG1663 [DRSC22488], what does the deposit list?
z-score, replicate 1: -0.45

How did the screen score CG3065 [DRSC04333]?
z-score, replicate 1: 0.38

With CG10000 [DRSC14170], how do the results read?
z-score, replicate 1: 0.13

For Spn27A [DRSC03608], how do the results read?
z-score, replicate 1: -0.28

How did the screen score chic [DRSC03507]?
z-score, replicate 1: -0.12

How did the screen score CG7031 [DRSC16178]?
z-score, replicate 1: -2.56; phenotype, replicate 1: reduced secretion

For CG32751 [DRSC21770], what does the deposit list?
z-score, replicate 1: -0.34

What is on record for Parp1 [DRSC07725]?
z-score, replicate 1: -0.15

What did the screen give for Parp1 [DRSC07778]?
z-score, replicate 1: 0.3

Which result is listed for Parp1 [DRSC07780]?
z-score, replicate 1: 0.4

With Adar [DRSC17725], how do the results read?
z-score, replicate 1: 0.16

What did the screen give for CG13558 [DRSC04196]?
z-score, replicate 1: 0.06

With Sidpn [DRSC02056], what was measured?
z-score, replicate 1: 0.23

With SmydA-9 [DRSC17814], what does the deposit list?
z-score, replicate 1: 0.18

Which result is listed for hpo [DRSC06065]?
z-score, replicate 1: 0.25

For CG12661 [DRSC17864], what was measured?
z-score, replicate 1: -0.22

With Arfip [DRSC15179], what does the deposit list?
z-score, replicate 1: 0.32
